Tests used:
[1] = system: HeLa S3 cells; assay: Intracellular boron uptake by ICP–MS, HeLa S3 cells; assay type: cell-based, human; conditions: ratio of intracellular boron uptake, 30 μM, 24 h
[2] = system: A549 cells; assay: Intracellular boron uptake by ICP–MS, A549 cells; assay type: cell-based, human; conditions: ratio of intracellular boron uptake, 30 μM, 24 h

Row | Compound | T/N ratio (HeLa S3/IMR90) [1] | T/N ratio (A549/IMR90) [2]
1 | N[C@@H](Cc1ccc([10B](O)O)cc1)C(=O)O [compound 2, L-4-boronophenylalanine] | 3.00 | 2.90
2 | sodium mercaptoborate [compound 1] | 0.77 | 0.80

From PMC8279495, “Design, Synthesis, and Biological Evaluation of Boron-Containing Macrocyclic Polyamines and Their Zinc(II) Complexes for Boron Neutron Capture Therapy” (Journal of Medicinal Chemistry, 2021)
